Laboratory results reported in PMC4731418.
Results are given in words; binding and its absence hold for the method and conditions named. In cells and extracts the contact can be indirect. Binding can be weak; no strength is given.

By UniProt entry, the sequences of proteins in these tests, tags left out. Where a name states a change or a piece, a line headed by the entry shows the natural chain unless it says otherwise.
UniProt P42859: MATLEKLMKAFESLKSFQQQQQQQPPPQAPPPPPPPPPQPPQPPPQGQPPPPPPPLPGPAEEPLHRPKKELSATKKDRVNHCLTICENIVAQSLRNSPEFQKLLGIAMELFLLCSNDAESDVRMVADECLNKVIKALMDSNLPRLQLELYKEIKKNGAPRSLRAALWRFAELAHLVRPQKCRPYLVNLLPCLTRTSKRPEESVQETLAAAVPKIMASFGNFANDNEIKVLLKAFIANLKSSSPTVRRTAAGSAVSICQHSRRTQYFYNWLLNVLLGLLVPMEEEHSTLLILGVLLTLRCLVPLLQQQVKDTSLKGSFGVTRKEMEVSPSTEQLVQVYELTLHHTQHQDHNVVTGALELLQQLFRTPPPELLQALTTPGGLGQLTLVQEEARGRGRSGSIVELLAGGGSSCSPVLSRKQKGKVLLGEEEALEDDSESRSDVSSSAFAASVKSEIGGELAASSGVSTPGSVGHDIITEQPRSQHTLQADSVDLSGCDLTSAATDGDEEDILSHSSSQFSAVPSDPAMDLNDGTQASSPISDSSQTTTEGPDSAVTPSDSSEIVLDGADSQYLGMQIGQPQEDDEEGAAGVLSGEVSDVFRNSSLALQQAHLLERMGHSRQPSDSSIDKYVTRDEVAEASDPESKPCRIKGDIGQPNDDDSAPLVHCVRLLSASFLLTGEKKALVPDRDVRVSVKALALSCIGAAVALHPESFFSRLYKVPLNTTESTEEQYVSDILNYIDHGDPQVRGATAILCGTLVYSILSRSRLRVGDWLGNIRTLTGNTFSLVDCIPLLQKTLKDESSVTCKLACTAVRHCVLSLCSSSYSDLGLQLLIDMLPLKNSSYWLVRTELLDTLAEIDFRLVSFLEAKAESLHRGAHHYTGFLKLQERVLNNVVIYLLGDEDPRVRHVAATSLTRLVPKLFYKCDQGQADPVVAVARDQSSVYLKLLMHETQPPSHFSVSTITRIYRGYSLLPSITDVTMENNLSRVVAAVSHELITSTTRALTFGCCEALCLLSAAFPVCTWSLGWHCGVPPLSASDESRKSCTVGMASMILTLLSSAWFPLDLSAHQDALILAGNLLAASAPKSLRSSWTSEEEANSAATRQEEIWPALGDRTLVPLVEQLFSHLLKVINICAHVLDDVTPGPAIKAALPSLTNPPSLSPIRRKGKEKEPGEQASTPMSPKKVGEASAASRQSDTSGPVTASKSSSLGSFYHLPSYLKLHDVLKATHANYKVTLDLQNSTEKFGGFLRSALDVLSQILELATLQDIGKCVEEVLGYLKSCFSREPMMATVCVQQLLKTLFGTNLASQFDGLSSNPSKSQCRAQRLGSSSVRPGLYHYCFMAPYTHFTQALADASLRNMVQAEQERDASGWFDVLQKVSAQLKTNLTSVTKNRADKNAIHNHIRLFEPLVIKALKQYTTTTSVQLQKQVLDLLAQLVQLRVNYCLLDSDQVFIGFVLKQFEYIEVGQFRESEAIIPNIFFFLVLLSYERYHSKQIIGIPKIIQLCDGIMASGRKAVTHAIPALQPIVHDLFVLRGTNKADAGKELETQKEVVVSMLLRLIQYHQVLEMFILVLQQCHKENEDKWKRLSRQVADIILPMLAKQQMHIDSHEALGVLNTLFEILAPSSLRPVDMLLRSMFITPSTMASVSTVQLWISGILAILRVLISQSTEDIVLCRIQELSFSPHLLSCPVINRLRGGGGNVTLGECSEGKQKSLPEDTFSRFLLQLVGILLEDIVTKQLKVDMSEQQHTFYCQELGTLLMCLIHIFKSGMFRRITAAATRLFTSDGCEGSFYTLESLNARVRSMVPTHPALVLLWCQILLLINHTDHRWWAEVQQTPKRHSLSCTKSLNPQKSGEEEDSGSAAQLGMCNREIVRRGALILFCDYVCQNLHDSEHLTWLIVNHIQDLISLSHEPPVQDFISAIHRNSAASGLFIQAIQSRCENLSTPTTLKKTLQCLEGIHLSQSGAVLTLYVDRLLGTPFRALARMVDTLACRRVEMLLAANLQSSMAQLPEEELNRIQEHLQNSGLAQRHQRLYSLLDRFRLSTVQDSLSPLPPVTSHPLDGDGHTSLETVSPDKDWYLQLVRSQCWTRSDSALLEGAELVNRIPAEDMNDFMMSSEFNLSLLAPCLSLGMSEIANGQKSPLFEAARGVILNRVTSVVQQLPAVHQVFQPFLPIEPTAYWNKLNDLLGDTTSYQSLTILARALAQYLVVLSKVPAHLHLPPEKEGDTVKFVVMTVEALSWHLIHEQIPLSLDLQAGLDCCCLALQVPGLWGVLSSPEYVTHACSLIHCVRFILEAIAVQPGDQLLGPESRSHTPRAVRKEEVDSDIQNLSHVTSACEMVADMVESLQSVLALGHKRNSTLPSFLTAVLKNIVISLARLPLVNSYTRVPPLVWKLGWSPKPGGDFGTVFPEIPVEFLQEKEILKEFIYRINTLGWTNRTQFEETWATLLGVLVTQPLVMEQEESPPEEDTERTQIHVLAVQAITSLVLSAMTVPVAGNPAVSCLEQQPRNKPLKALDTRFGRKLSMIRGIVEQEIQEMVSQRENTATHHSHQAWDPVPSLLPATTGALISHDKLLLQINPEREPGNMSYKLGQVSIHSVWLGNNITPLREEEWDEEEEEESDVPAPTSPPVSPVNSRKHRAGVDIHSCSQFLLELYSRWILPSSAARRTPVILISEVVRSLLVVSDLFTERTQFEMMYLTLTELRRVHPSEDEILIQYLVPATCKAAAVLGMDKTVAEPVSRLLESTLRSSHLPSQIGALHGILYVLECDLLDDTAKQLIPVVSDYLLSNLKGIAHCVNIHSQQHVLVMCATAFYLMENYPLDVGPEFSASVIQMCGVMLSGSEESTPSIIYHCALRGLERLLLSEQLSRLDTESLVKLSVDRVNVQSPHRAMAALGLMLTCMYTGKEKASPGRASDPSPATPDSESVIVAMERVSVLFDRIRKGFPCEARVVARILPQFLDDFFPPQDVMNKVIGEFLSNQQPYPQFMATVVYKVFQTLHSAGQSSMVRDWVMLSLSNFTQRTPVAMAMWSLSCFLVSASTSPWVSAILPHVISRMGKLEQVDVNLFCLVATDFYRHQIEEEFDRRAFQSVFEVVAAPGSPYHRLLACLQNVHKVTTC

Target: T1, SIRT1 (mouse (endogenous in mouse brain)) (UniProt Q923E4)
T1 sequence: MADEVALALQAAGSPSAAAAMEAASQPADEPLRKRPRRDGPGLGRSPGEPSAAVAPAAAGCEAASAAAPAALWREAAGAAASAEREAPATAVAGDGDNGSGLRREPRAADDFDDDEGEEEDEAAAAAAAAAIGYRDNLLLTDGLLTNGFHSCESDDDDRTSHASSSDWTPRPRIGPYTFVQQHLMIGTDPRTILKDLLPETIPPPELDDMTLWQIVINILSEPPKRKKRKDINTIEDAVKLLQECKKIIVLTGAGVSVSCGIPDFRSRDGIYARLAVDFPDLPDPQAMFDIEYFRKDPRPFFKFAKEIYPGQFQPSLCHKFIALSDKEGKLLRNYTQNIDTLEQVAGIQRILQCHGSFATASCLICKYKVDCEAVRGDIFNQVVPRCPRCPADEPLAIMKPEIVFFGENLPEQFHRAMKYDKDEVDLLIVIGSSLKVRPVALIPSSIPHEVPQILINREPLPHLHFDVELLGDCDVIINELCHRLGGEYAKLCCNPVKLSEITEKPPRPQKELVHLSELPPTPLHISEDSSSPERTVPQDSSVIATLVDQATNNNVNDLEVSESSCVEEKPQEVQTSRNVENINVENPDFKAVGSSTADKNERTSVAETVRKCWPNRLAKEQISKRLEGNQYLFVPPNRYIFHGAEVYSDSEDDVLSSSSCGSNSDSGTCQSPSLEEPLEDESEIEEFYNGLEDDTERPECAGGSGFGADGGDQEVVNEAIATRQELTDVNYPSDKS
Assay: co-IP; SIRT1 immunoprecipitated (1 μg antibody, 4 h, 4°C, protein G Dynabeads) from half brain lysates of R6/2 (9 weeks), HdhQ150 homozygous (22 months) and WT littermate mice in NETN buffer (20 mM Tris-HCl pH 8, 100 mM NaCl, 1 mM EDTA, 0.5% NP-40); western blot for HTT

**Q.** “mutant HTT of HdhQ150 knock-in homozygous mice (from UniProt P42859)” was tested. Which binding did it give?
**A.** binds
